Two substances from paper PMC9458672 can be followed below.

Amino acid sequences for entries named in this document (tags omitted).
UniProt Q15286: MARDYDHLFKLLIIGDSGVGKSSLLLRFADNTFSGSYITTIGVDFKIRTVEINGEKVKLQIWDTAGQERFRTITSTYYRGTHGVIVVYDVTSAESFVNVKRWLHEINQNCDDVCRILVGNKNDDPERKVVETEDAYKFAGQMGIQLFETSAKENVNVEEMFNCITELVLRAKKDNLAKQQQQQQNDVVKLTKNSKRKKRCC
UniProt P62330: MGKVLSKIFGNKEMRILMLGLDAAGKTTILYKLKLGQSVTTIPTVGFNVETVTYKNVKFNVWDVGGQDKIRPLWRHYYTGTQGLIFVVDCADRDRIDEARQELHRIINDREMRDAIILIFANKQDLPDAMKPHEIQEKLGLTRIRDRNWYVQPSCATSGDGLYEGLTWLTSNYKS
UniProt Q01968: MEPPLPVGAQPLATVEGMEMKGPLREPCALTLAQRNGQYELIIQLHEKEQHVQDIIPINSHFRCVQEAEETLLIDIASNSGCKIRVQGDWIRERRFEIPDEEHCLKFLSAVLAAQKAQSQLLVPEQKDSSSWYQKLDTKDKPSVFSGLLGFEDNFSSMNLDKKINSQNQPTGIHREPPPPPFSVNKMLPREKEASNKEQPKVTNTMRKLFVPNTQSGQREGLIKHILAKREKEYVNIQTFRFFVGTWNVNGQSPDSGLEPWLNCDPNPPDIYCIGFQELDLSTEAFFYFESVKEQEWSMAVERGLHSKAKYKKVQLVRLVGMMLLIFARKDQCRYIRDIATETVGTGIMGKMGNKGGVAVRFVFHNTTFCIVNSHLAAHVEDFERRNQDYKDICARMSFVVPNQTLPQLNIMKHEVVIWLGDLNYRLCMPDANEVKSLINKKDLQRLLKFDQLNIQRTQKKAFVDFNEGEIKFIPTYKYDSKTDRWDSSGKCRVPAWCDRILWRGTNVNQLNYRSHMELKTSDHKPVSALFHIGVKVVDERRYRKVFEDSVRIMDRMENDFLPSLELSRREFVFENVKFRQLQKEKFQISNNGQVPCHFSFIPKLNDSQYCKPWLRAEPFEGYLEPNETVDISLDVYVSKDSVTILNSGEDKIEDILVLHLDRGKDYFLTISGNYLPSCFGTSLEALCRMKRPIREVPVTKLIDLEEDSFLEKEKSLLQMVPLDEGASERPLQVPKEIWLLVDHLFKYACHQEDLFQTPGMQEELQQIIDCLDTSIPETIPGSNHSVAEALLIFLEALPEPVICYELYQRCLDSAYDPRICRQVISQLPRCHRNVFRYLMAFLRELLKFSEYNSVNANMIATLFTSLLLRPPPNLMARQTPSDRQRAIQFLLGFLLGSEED

For assay [1], the target named is Tom20-GFP-Rab35 co-expressed with TagRFP-ACAP2 (Rab35/ACAP2 complex at mitochondria) (UniProt Q15286). Briefly: mitochondrial mislocalisation (Tom20 tethering) by fluorescence microscopy; three proteins expressed together in HUVECs: Tom20-GFP-Rab35, TagRFP-ACAP2 and HA-Arf6; relocation of HA-Arf6 to mitochondria read by imaging.
The target in assay [2] is Tom20-Rab35 wild-type (mitochondrial-targeted Rab35) (UniProt Q15286). The experiment in a line: mitochondrial mislocalisation (Tom20 tethering) by fluorescence microscopy; bait tethered to mitochondria by a Tom20 tag and co-expressed with the candidate partner (or stained for the endogenous one) in HUVECs; relocation of the partner to mitochondria read by imaging and Pearson's coefficient.

Assay [3] concerns the target T1, mitochondrial-targeted ACAP2 (UniProt Q15057).
T1 sequence: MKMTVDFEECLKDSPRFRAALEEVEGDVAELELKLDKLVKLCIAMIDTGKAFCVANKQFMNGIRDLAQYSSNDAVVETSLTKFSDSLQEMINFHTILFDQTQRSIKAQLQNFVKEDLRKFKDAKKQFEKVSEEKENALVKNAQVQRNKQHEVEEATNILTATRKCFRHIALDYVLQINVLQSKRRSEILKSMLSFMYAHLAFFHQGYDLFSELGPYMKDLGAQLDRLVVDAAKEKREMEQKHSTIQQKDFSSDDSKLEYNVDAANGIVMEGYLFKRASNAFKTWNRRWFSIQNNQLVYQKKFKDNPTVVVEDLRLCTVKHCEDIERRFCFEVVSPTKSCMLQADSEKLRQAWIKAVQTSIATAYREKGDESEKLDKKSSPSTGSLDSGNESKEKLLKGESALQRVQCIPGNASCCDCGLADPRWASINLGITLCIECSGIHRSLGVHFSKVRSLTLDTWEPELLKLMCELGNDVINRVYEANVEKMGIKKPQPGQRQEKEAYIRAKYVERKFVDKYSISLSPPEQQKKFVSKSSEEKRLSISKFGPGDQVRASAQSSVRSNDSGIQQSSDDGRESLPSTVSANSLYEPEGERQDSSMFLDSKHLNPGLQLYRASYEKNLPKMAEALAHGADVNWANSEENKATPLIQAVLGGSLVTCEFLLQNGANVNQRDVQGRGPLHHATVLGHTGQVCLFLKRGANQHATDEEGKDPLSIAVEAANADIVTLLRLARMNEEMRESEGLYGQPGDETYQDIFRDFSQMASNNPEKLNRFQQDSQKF
Described as above.

No constants are given. Whether binding was seen depends on the method and setting.

Turning to “Arf6 (overexpressed) (from UniProt P62330 1-175)”, the binding entry in assay [1], in assay [2] and in assay [3] was “no binding” each time.
With “OCRL (tagged, overexpressed) (from UniProt Q01968 1-901)”, in assay [2], the binding entry is reported as “no binding”.
